Source: US9061984B2 (University of Louisville Research Foundation, Inc., priority 2008, dated 2015)

Tests used:
[1] = system: Trypanosoma cruzi (Tulahuen C4); assay: In vitro anti-T. cruzi activity (β-galactosidase CPRG colorimetric assay in VERO monolayer); format: cell-based
[2] = system: axenic amastigotes of L. amazonensis (strain MHOM/BR/76/LTB-012); details: IC50, macrophage/IC50, L. amazonensis; Table 7
[3] = system: VERO cells; assay: VERO cells IC50 (Table 5); format: cell-based, African green monkey; details: printed in the VERO IC50 cell of Table 5
[4] = IC50, VERO/IC50, T. cruzi, Table 2
[5] = Selectivity index = IC50, VERO/IC50, T. cruzi, Table 3

Compound | SI [1, 4] | SI [1, 5] | SI [2] | also measured
COc1ccc(/C=C/C(=O)c2c(O)cc(O)cc2OC)cc1 [Compound I-05, (E)-1-(2,4-Dihydroxy-6-methoxyphenyl)-3-(4-methoxyphenyl)-2-propen-1-one] | 0.84 | – | – | –
COc1cc(O)cc(O)c1C(=O)/C=C/c1ccc2c(c1)OCO2 [Compound I-06, (2E)-3-(1,3-Benzodioxol-5-yl)-1-(2,4-dihydroxy-6-methoxyphenyl)-2-propen-1-one] | 2.69 | 2.7 | – | –
C=CCOc1cc(OC)c(C(=O)/C=C/c2ccccc2)c(OCC=C)c1 [Compound I-08, (2E)-1-[2-Methoxy-4,6-bis(2-propenyloxy)phenyl]-3-(phenyl)-2-propen-1-one] | 0.90 | 1.0 | – | –
C=CCOc1cc(OC)c(C(=O)/C=C/c2ccc(O)cc2)c(OCC=C)c1 [Compound I-09, (2E)-1-[2-Methoxy-4,6-bis(2-propenyloxy)phenyl]-3-(4-hydroxyphenyl)-2-propen-1-one] | 3.76 | 3.8 | – | –
C=CCOc1cc(OC)c(C(=O)/C=C/c2ccc(OC)cc2)c(OCC=C)c1 [Compound I-10, (2E)-1-[2-Methoxy-4,6-bis(2-propenyloxy)phenyl]-3-(4-methoxyphenyl)-2-propen-1-one] | 6.59 and 4.67 | 4.7 | – | –
C=CCOc1cc(OC)c(C(=O)/C=C/c2cccc(OC)c2)c(OCC=C)c1 [Compound I-11, (2E)-1-[2-Methoxy-4,6-bis(2-propenyloxy)phenyl]-3-(3-methoxyphenyl)-2-propen-1-one] | 10.06 | – | – | –
C=CCOc1cc(OC)c(C(=O)/C=C/c2ccc(C(F)(F)F)cc2)c(OCC=C)c1 [Compound I-12, (2E)-1-[2-Methoxy-4,6-bis(2-propenyloxy)phenyl]-3-[4-(trifluoromethyl)phenyl]-2-propen-1-one] | 0.46 | 0.5 | – | –
C=CCOc1cc(OC)c(C(=O)/C=C/c2ccc([N+](=O)[O-])cc2)c(OCC=C)c1 [Compound I-13, (2E)-1-[2-Methoxy-4,6-bis(2-propenyloxy)phenyl]-3-(4-nitrophenyl)-2-propen-1-one] | 3.09 | 3.1 | – | –
C=CCOc1cc(OC)c(C(=O)/C=C/c2ccc(Cl)cc2)c(OCC=C)c1 [Compound I-14, (2E)-3-(4-Chlorophenyl)-1-[2-methoxy-4,6-bis(2-propenyloxy)phenyl]-2-propen-1-one] | 1.21 | 1.2 | – | –
C=CCOc1cc(OC)c(C(=O)/C=C/c2ccccc2F)c(OCC=C)c1 [Compound I-15, (2E)-3-(2-Fluorophenyl)-1-[2-methoxy-4,6-bis(2-propenyloxy)phenyl]-2-propen-1-one] | 2.62 | 2.6 | – | –
C=CCOc1cc(OC)c(C(=O)/C=C/c2ccc(OC)cc2OC)c(OCC=C)c1 [Compound I-17, (2E)-3-(2,4-Dimethoxyphenyl)-1-[2-methoxy-4,6-bis(2-propenyloxy)phenyl]-2-propen-1-one] | 7.06 | – | – | –
C=CCOc1cc(OC)c(C(=O)/C=C/c2ccc3c(c2)OCO3)c(OCC=C)c1 [Compound I-19, (2E)-3-(1,3-Benzodioxol-5-yl)-1-[2-methoxy-4,6-bis(2-propenyloxy)phenyl]-2-propen-1-one] | 6.68 and 5.42 | 5.4 | – | –
C=CCOc1cc(OC)c(C(=O)/C=C/c2cc(OC)c(OC)c(OC)c2)c(OCC=C)c1 [Compound I-20, (2E)-1-[2-Methoxy-4,6-bis(2-propenyloxy)phenyl]-3-(3,4,5-trimethoxyphenyl)-2-propen-1-one] | 12.00 | – | – | –
C=CCOc1cc(OC)c(C(=O)/C=C/c2ccc(F)cc2)c(OCC=C)c1 [Compound I-23, (2E)-3-(4-Fluorophenyl)-1-[2-methoxy-4,6-bis(2-propenyloxy)phenyl]-2-propen-1-one] | 0.95 | 0.9 | – | –
C=CCOc1cc(OC)c(C(=O)/C=C/c2ccc(C)cc2)c(OCC=C)c1 [Compound I-24, (2E)-1-[2-Methoxy-4,6-bis(2-propenyloxy)phenyl]-3-(4-methylphenyl)-2-propen-1-one] | 12.26 | – | – | –
C=CCOc1cc(OC)c(C(=O)/C=C/c2cc(OCC=C)c(Br)c(OCC=C)c2)c(OCC=C)c1 [Compound I-25, (2E)-3-(3,5-Bis(2-propenyloxy)-4-bromophenyl)-1-[2-methoxy-4,6-bis(2-propenyloxy)phenyl]-2-propen-1-one] | 13.94 | – | – | –
C=CCOc1cc(OC)c(C(=O)/C=C/c2ccncc2)c(OCC=C)c1 [Compound I-26, (2E)-1-[2-Methoxy-4,6-bis(2-propenyloxy)phenyl]-3-(4-pyridinyl)-2-propen-1-one] | 1.92 | 1.9 | – | –
C=CCOc1cc(OC)c(C(=O)/C=C/c2ccco2)c(OCC=C)c1 [Compound I-28, (2E)-3-(2-furanyl)-1-[2-methoxy-4,6-bis(2-propenyloxy)phenyl]-2-propen-1-one] | 15.70 | – | – | –
COc1cc(O)cc(O)c1C(=O)/C=C/c1ccccc1 [Compound I-29, (2E)-1-(2,4-Dihydroxy-6-methoxyphenyl)-3-(phenyl)-2-propen-1-one] | – | – | 1.7 | –
COc1cc(O)cc(O)c1C(=O)/C=C/c1ccc(O)cc1 [Compound I-30, (2E)-1-(2,4-Dihydroxy-6-methoxyphenyl)-3-(4-hydroxyphenyl)-2-propen-1-one] | – | – | 1.4 | –
COc1cccc(/C=C/C(=O)c2c(O)cc(O)cc2OC)c1 [Compound I-31, (2E)-1-(2,4-Dihydroxy-6-methoxyphenyl)-3-(3-methoxyphenyl)-2-propen-1-one] | – | – | 1.5 | –
COc1cc(O)cc(O)c1C(=O)/C=C/c1ccc(C(F)(F)F)cc1 [Compound I-32, (2E)-1-(2,4-Dihydroxy-6-methoxyphenyl)-3-[4-(trifluoromethyl)phenyl]-2-propen-1-one] | – | – | 2.0 | –
COc1cc(O)cc(O)c1C(=O)/C=C/c1ccc(Cl)cc1 [Compound I-33, (2E)-3-(4-Chlorophenyl)-1-(2,4-dihydroxy-6-methoxyphenyl)-2-propen-1-one] | – | – | 1.7 | –
COc1cc(O)cc(O)c1C(=O)/C=C/c1ccccc1F [Compound I-34, (2E)-1-(2,4-Dihydroxy-6-methoxyphenyl)-3-(2-fluorophenyl)-2-propen-1-one] | – | – | 1.4 | –
COc1cc(O)cc(O)c1C(=O)/C=C/c1ccccc1Br [Compound I-35, (2E)-3-(2-Bromophenyl)-1-(2,4-dihydroxy-6-methoxyphenyl)-2-propen-1-one] | – | – | 1.4 | –
COc1ccc(/C=C/C(=O)c2c(O)cc(O)cc2OC)c(OC)c1 [Compound I-36, (2E)-1-(2,4-Dihydroxy-6-methoxyphenyl)-3-(2,4-dimethoxyphenyl)-2-propen-1-one] | – | – | >50 | –
COc1cc(O)cc(O)c1C(=O)/C=C/c1ccc(F)cc1 [Compound I-40, (2E)-1-(2,4-Dihydroxy-6-methoxyphenyl)-3-(4-fluorophenyl)-2-propen-1-one] | – | – | 2.4 | –
COc1cc(O)cc(O)c1C(=O)/C=C/c1ccc(C)cc1 [Compound I-41, (2E)-1-(2,4-Dihydroxy-6-methoxyphenyl)-3-(4-methylphenyl)-2-propen-1-one] | – | – | 2.2 | –
Fc1ccccc1/C=N\Nc1ncnc2sc3c(c12)CCCC3 [II-27] | – | – | – | SI [3]: 9
Clc1ccc(/C=N\Nc2ncnc3sc4c(c23)CCCC4)cc1 [II-28] | – | – | – | SI [3]: ≥ 10

Several values for one entry are separate records, joined by “and”; a condition that tells them apart may be missing. Equal values may be shown once.
